Reference: the supplement of paper PMC10849652
Some of the results follow. Residues, ends and D or L forms follow the SMILES beside them. *: point of attachment. Cbz = O=C(OCc1ccccc1)*

By UniProt entry, the sequences of proteins in these tests, tags left out. Where a name states a change or a piece, a line headed by the entry shows the natural chain unless it says otherwise.
UniProt Q14289, whole entry, looked up: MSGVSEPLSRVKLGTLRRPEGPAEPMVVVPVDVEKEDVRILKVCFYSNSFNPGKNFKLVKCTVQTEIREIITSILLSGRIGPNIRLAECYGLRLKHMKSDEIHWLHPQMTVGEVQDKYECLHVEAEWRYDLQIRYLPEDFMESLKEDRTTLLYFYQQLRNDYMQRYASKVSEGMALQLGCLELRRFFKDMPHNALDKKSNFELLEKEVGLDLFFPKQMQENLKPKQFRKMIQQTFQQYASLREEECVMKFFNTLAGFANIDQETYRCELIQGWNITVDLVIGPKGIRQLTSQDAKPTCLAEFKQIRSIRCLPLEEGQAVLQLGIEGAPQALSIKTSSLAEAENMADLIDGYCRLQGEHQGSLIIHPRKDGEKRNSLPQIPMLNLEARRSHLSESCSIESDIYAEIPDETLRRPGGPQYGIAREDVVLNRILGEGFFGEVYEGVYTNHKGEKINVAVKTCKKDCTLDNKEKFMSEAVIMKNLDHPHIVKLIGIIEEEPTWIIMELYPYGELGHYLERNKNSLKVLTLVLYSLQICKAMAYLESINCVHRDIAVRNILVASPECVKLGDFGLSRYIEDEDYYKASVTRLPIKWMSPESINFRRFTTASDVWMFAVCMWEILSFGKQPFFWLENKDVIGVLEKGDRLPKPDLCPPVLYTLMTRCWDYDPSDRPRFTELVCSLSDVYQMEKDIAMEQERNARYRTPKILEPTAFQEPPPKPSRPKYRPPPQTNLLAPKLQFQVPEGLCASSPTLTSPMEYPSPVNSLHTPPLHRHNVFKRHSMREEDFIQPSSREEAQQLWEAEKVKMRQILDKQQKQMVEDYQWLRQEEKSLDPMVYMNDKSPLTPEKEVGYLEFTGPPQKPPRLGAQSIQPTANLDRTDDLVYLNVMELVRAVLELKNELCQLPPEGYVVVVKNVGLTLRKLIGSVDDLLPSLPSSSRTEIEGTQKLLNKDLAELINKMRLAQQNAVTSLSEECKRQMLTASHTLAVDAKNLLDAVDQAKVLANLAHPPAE
UniProt Q8WUY3: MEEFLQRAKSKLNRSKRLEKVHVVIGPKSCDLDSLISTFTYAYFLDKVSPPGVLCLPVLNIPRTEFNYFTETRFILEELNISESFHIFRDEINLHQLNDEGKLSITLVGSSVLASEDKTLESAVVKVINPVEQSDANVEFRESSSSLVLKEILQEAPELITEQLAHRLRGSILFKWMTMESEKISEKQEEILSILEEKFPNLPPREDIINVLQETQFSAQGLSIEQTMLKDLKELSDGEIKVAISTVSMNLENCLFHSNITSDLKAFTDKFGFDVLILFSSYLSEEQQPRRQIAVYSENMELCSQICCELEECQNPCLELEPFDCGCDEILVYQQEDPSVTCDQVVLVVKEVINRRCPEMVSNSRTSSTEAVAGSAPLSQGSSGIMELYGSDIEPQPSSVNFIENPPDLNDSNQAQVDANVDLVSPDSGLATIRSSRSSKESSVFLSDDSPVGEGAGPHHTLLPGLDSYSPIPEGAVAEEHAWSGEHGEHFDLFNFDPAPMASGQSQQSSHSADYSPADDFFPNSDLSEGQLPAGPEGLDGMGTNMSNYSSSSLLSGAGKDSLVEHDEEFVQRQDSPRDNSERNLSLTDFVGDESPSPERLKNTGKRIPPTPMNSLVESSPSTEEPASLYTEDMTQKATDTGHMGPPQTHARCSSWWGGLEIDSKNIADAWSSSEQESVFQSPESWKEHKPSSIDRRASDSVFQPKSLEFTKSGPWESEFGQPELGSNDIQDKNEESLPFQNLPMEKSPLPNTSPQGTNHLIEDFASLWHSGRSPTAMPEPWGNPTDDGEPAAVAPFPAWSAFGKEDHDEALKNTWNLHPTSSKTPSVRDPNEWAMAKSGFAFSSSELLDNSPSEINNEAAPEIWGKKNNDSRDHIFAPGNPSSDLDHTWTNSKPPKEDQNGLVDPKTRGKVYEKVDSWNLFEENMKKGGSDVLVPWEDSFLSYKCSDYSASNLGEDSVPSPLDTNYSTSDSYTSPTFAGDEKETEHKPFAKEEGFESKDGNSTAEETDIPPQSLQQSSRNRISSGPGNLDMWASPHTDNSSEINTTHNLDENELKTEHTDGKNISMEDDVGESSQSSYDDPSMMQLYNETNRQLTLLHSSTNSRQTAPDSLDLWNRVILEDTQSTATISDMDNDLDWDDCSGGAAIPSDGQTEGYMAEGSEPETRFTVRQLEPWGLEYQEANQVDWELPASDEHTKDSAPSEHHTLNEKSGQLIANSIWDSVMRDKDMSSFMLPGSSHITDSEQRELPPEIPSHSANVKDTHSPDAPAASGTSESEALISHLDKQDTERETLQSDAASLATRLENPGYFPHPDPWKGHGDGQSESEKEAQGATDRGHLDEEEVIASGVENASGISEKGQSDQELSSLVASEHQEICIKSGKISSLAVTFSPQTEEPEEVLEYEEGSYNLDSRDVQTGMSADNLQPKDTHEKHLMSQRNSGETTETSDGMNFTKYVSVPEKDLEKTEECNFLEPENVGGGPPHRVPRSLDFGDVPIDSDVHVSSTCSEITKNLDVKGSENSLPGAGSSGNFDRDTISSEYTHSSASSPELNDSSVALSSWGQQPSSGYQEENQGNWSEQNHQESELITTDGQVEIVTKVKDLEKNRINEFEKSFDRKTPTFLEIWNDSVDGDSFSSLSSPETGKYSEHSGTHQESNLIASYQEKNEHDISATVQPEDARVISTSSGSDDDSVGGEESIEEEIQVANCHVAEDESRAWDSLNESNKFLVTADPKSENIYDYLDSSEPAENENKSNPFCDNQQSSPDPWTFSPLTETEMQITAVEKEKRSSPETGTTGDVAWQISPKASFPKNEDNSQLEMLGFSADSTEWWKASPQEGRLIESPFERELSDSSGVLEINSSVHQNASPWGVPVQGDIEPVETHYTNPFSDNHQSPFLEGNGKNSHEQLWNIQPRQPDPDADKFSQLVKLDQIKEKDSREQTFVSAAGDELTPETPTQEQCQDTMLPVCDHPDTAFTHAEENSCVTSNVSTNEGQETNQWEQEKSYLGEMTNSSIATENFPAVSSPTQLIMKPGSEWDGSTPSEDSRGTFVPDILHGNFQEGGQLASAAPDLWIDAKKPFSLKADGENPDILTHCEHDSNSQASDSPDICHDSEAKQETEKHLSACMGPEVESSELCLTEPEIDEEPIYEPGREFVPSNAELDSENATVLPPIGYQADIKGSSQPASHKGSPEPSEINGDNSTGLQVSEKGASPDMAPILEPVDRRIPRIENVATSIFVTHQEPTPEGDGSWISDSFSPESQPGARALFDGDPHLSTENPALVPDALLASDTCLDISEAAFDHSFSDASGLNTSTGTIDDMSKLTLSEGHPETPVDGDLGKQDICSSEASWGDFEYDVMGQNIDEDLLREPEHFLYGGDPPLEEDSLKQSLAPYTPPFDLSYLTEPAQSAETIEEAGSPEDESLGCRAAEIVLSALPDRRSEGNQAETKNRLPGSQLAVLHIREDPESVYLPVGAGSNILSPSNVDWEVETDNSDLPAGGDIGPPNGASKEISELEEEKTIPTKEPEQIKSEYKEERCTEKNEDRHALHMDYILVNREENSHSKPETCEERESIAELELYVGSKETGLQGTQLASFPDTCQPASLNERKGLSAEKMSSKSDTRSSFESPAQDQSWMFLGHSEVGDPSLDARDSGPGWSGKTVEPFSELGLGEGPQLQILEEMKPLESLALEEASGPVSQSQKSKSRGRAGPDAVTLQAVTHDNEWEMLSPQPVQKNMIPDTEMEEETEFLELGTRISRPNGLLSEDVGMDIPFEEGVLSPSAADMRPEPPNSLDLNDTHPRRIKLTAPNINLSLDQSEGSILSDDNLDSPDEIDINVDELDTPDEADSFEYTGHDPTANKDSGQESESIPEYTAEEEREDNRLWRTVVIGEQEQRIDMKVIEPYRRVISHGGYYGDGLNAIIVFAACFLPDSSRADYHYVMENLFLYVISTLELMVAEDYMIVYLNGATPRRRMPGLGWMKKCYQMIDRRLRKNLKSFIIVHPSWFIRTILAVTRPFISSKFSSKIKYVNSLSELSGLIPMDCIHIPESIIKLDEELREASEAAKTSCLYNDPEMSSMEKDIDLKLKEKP
UniProt Q93096: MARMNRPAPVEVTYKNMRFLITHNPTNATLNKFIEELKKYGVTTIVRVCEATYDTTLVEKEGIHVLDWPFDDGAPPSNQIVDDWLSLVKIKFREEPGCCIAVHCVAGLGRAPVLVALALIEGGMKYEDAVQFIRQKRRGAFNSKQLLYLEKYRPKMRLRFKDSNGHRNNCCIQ
UniProt Q9P2W1: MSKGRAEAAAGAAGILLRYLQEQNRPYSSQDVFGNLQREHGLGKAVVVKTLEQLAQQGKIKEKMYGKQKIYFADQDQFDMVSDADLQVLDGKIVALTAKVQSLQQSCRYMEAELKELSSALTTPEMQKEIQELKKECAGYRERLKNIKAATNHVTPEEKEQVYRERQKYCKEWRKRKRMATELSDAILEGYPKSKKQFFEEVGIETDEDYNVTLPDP
UniProt Q14997: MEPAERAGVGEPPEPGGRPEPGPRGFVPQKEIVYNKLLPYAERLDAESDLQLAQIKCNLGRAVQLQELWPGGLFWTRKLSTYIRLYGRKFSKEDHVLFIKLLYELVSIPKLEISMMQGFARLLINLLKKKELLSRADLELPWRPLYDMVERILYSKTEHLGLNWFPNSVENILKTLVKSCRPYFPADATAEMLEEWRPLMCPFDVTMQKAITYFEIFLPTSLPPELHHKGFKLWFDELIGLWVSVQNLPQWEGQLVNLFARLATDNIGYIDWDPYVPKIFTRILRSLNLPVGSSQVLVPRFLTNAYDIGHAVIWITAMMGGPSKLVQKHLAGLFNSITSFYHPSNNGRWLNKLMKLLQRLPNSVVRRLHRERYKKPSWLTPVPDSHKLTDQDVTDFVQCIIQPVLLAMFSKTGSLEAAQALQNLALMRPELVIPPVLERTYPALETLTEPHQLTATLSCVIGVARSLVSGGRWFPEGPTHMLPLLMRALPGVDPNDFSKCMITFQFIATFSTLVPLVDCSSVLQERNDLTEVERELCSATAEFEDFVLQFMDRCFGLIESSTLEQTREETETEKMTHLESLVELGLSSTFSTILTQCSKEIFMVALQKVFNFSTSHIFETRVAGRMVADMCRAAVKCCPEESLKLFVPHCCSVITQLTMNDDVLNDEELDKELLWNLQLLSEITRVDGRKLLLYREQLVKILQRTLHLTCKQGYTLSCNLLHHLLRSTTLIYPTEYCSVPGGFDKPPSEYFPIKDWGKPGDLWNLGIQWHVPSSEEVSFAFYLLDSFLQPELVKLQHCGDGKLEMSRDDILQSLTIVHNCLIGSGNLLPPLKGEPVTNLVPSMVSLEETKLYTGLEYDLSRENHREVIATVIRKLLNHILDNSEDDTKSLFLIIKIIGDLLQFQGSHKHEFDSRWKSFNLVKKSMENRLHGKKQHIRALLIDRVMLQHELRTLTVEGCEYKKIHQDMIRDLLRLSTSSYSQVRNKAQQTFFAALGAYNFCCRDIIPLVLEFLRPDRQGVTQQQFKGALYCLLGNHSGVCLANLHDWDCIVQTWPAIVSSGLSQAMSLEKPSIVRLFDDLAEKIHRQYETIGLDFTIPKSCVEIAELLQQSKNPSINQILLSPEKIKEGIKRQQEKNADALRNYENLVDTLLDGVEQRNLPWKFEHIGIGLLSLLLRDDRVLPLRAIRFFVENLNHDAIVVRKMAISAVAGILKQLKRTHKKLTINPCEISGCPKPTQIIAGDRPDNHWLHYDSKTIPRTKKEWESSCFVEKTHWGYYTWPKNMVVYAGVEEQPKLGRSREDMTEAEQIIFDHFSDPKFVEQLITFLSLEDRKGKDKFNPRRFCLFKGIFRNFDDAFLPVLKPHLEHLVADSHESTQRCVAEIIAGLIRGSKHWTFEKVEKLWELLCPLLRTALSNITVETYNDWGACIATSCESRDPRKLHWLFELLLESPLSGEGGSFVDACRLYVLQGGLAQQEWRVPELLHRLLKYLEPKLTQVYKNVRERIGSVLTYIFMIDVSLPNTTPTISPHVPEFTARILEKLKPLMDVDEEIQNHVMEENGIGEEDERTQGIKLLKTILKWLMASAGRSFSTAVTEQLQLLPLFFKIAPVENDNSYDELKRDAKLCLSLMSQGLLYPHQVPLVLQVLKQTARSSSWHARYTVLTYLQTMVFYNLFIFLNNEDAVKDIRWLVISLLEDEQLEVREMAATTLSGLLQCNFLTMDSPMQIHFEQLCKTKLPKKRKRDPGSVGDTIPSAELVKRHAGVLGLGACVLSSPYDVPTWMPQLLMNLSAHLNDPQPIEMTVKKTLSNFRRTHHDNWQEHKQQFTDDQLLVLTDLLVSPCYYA
UniProt P28072: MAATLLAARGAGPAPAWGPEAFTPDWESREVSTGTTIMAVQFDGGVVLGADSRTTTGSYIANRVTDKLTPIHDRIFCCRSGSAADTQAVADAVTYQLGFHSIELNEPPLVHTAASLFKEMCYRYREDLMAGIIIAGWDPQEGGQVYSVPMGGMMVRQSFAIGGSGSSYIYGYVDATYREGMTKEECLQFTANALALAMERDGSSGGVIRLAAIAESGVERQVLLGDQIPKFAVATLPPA

Tests used:
Experiment in all cases: log2 fold change, soluble protein after heating vs DMSO (PISA); higher = thermal stabilisation; K562 cells, 10 uM, 30 min; active = over 0.2 and 3.5 SD of the protein, either way, in both replicates (recomputed)
erlotinib = compound: C#Cc1cccc(Nc2ncnc3cc(OCCOC)c(OCCOC)cc23)c1 [erlotinib]
How it was run: (§1)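 Soluble protein was quantified by TMTpro 16plex LC-MS/MS after channel sums were equalised. It was obtained as the supernatant after 21,000xg for 90 min from pooled aliquots of K562 cells (2×10^6 cells/mL, 10 μM compound, 30 min) heated for 3 min across 48°C-58°C and extracted in PBS with 0.5% NP-40 at 4°C. Thermal stability values are relative to control samples and come from duplicates. They are given as log2 fold changes.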

[1] = compound: C/C(=N\NC(=O)C1=CC(=CC=C1)S(=O)(=O)N2CCOCC2)/C3=C(C=CC(=C3)Cl)O
How it was run: as §1

[2] = compound: C1=CC(=CC=C1C2=NC3=C(N2)C=C(C=C3)C(=O)N)OC4=CC=C(C=C4)Cl
How it was run: as §1

[3] = compound: C1=CC2=C(C=CC(=C2)/C=C\3/C(=O)NC(=NCC4=CC=CS4)S3)N=C1
How it was run: as §1

[4] = compound: C1=CC2=NC=CN=C2C=C1/C=C/3\C(=O)NC(=O)S3
How it was run: as §1

[5] = compound: C1=CC=C(C=C1)C2=NC(=C(N2)C3=CC=NC=C3)C4=CC(=C(C=C4)Cl)O
How it was run: as §1

[6] = compound: C1=CC=C2C(=C1)C3=NNC4=CC=CC(=C43)C2=O
How it was run: as §1

[7] = compound: C1CCN(C1)C(=O)NC2=CC=CC(=C2)NC3=NC=C(C(=N3)NCCC4=CN=CN4)Br
How it was run: as §1

[8] = compound: C1CN(CCC1(CC2=CC=C(C=C2)Cl)N)C3=NC=NC4=C3C=CN4
How it was run: as §1

IRAK-1-4 Inhibitor I = compound: C1COCCN1CCN2C3=CC=CC=C3N=C2NC(=O)C4=CC(=CC=C4)[N+](=O)[O-] [IRAK-1-4 Inhibitor I]
How it was run: as §1

ibrutinib = compound: C=CC(=O)N1CCC[C@@H](n2nc(-c3ccc(Oc4ccccc4)cc3)c3c(N)ncnc32)C1 [ibrutinib]
How it was run: as §1

[9] = compound: CC(=O)c1cnc2ccc(-c3cc(Cl)c(O)c(Cl)c3)nc2c1N[C@H]1CC[C@H](CN(C)C)CC1
How it was run: as §1

ralimetinib = compound: CC(C)(C)Cn1c(N)nc2ccc(-c3[nH]c(C(C)(C)C)nc3-c3ccc(F)cc3)nc21 [ralimetinib]
How it was run: as §1

[10] = compound: CC(C)(O)CC(=O)NCCn1ccc2ncnc(Nc3ccc(Oc4cccc(C(F)(F)F)c4)c(Cl)c3)c21
How it was run: as §1

[11] = compound: CC(C)C1=C2N=C(C=C(N2N=C1)NCC3=CC=CC=C3)NCCCCCCN
How it was run: as §1

[12] = compound: CC(C)C[C@@H](C=O)NC(=O)[C@H](CC(C)C)NC(=O)[C@H](CC(C)C)NC(=O)OCc1ccccc1
How it was run: as §1

pinometostat = compound: CC(C)N(C[C@H]1O[C@@H](n2cnc3c(N)ncnc32)[C@H](O)[C@@H]1O)[C@H]1C[C@@H](CCc2nc3cc(C(C)(C)C)ccc3[nH]2)C1 [pinometostat]
How it was run: as §1

[13] = compound: CC1=C(C2=C(C=C1)C(=O)C3=CC=CC=C3N2CCCN)C
How it was run: as §1

[14] = compound: C1=CC(=C(C=C1Cl)C2=NC3=NC=CN=C3C(=N2)NC4=CC=NC=C4)F
How it was run: as §1

[15] = compound: CC1=C(C(CC(=O)N1)C2=CC=C(C=C2)C(F)(F)F)C(=O)NC3=C(C=C4C(=C3)C=NN4)F
How it was run: as §1

Target	log2 fold change (erlotinib)	log2 fold change [1]	log2 fold change [2]	log2 fold change [3]	log2 fold change [4]	log2 fold change [5]	log2 fold change [6]	log2 fold change [7]	log2 fold change [8]	log2 fold change (IRAK-1-4 Inhibitor I)	log2 fold change (ibrutinib)	log2 fold change [9]	log2 fold change (ralimetinib)	log2 fold change [10]	log2 fold change [11]	log2 fold change [12]	log2 fold change (pinometostat)	log2 fold change [13]	log2 fold change [14]	log2 fold change [15]
PTK2B (UniProt Q14289)	inactive: 0.225	inactive: 0.063	inactive: 0.059	inactive: 0.048	inactive: 0.058	inactive: 0.008	inactive: -0.066	inactive: 0.025	inactive: 0.105	inactive: -0.095	inactive: -0.257	inactive: -0.018	inactive: 0.178	inactive: -0.026	inactive: -0.244	inactive: 0.052	inactive: 0.004	inactive: 0.061	–	–
PTTG1 (UniProt O95997)	inactive: -0.024	inactive: 0.094	inactive: 0.029	inactive: -0.043	inactive: -0.005	inactive: -0.205	inactive: -0.045	inactive: -0.024	inactive: -0.093	inactive: -0.026	inactive: -0.017	inactive: 0.057	inactive: -0.069	inactive: -0.03	inactive: -0.002	active: 0.393	inactive: 0.036	inactive: -0.084	inactive: -0.024	–
PTMA (UniProt P06454)	inactive: 0.06	inactive: 0.159	inactive: 0.005	inactive: -0.136	inactive: 0.006	inactive: 0.197	inactive: 0.189	inactive: -0.148	inactive: 0.151	inactive: 0.034	inactive: 0.049	inactive: 0.127	inactive: 0.251	inactive: -0.133	inactive: 0.085	inactive: -0.289	inactive: -0.092	inactive: -0.021	inactive: 0.192	–
PRUNE2 isoform 3 (UniProt Q8WUY3)	inactive: -0.026	inactive: 0.049	inactive: 0.129	inactive: -0.022	–	inactive: 0.289	inactive: -0.041	–	–	inactive: 0.211	–	inactive: -0.029	inactive: 0.109	inactive: -0.06	inactive: -0.165	inactive: -0.016	inactive: -0.093	–	inactive: -0.111	inactive: -0.059
PTP4A1 (UniProt Q93096)	inactive: 0.053	inactive: 0.083	inactive: 0.037	inactive: -0.042	inactive: 0.038	inactive: 0.062	inactive: 0.027	inactive: -0.096	inactive: -0.127	inactive: -0.011	inactive: -0.05	inactive: 0.092	inactive: -0.096	inactive: 0.013	inactive: -0.049	inactive: -0.062	inactive: -0.02	inactive: -0.179	inactive: 0.134	–
PSMC3IP (UniProt Q9P2W1)	inactive: -0.203	inactive: 0.168	inactive: 0.011	inactive: -0.098	inactive: 0.225	–	inactive: -0.191	inactive: -0.106	inactive: -0.139	–	inactive: -0.081	inactive: 0.053	–	inactive: -0.149	inactive: 0.051	–	–	inactive: 0.102	inactive: 0.005	inactive: 0.051
QKI (UniProt Q96PU8)	inactive: -0.011	inactive: 0.051	inactive: 0.003	inactive: 0.028	inactive: 0.007	inactive: -0.002	inactive: -0.032	inactive: -0.025	inactive: -0.007	inactive: -0.034	inactive: -0.004	inactive: -0.113	inactive: 0.007	inactive: 0.019	inactive: -0.221	inactive: -0.005	inactive: -0.026	inactive: -0.043	inactive: -0.008	–
PSMB9 (UniProt P28065)	inactive: -0.158	active: -0.633	inactive: 0.113	inactive: 0.174	inactive: -0.142	–	inactive: -0.006	–	–	inactive: 0.091	inactive: 0.511	inactive: 0.031	–	inactive: -0.01	inactive: 0.205	–	inactive: 0.069	–	inactive: -0.116	–
PSME4 (UniProt Q14997)	inactive: -0.011	inactive: 0.017	inactive: 0.065	inactive: 0.055	inactive: 0.022	inactive: -0.007	inactive: 0.027	inactive: 0.008	inactive: 0.014	inactive: 0.003	inactive: -0.022	inactive: -0.023	inactive: -0.024	inactive: -0.097	inactive: -0.043	active: 0.271	inactive: 0.068	inactive: 0.105	inactive: -0.028	–
PSMB6 (UniProt P28072)	inactive: -0.067	inactive: -0.079	inactive: -0.001	inactive: -0.068	inactive: -0.006	inactive: -0.046	inactive: -0.012	inactive: 0.011	inactive: 0.042	inactive: -0.007	inactive: -0.025	inactive: 0.049	inactive: -0.045	inactive: 0.045	inactive: 0.129	active: 0.4	inactive: -0.053	inactive: 0	inactive: -0.024	–
PSD4 (UniProt Q8NDX1)	inactive: -0.032	inactive: 0.344	inactive: 0.003	inactive: -0.12	–	inactive: 0.128	inactive: -0.096	inactive: -0.053	inactive: -0.181	inactive: -0.07	–	inactive: -0.152	inactive: 0.293	inactive: -0.137	inactive: -0.2	inactive: 0.055	inactive: 0.205	inactive: -0.071	inactive: -0.149	inactive: -0.103
PTRHD1 (UniProt Q6GMV3)	inactive: -0.002	inactive: 0.005	inactive: 0.046	inactive: 0.134	inactive: 0.045	inactive: 0.121	inactive: -0.032	inactive: -0.017	inactive: -0.012	inactive: 0.155	inactive: 0.004	inactive: -0.048	inactive: -0.049	inactive: -0.022	inactive: 0.139	inactive: -0.01	inactive: 0.003	inactive: 0.184	active: 0.37	–
PSMD2 (UniProt Q13200)	inactive: -0.095	inactive: -0.095	inactive: -0.001	inactive: -0.043	inactive: -0.024	inactive: 0.007	inactive: 0.016	inactive: 0.005	inactive: -0.021	inactive: -0.08	inactive: -0.035	inactive: 0.039	inactive: 0.018	inactive: 0.021	inactive: 0.039	active: -0.296	inactive: 0.019	inactive: -0.036	inactive: -0.042	–
PYCR1 isoform 3 (UniProt P32322)	inactive: -0.022	inactive: 0.039	–	inactive: -0.057	–	inactive: 0.023	inactive: 0.02	–	inactive: 0.063	inactive: -0.021	inactive: 0.035	inactive: 0.033	inactive: -0.008	inactive: -0.053	inactive: 0.038	inactive: -0.007	inactive: -0.099	inactive: -0.005	inactive: 0.045	inactive: -0.027
PTPRS (UniProt Q13332)	inactive: -0.026	inactive: 0.055	inactive: -0.004	inactive: -0.107	inactive: -0.15	inactive: 0.173	inactive: -0.021	–	–	inactive: 0.157	inactive: -0.026	inactive: -0.031	inactive: -0.193	inactive: 0.055	inactive: 0.031	inactive: 0.521	inactive: 0.254	–	inactive: -0.051	inactive: 0.032
PYCR1 (UniProt J3QKT4)	inactive: 0.171	inactive: -0.43	inactive: 0.01	inactive: 0.177	inactive: 0.01	–	inactive: 0.048	inactive: -0.062	inactive: 0.218	–	inactive: -0.058	inactive: -0.108	–	inactive: -0.04	inactive: 0.168	–	–	inactive: -0.017	inactive: 0.023	–
PRXL2A (UniProt Q9BRX8)	inactive: 0.1	inactive: 0.052	inactive: 0.114	inactive: 0.246	inactive: 0.064	–	inactive: -0.213	inactive: -0.102	inactive: -0.063	inactive: 0.056	inactive: -0.103	inactive: -0.129	–	inactive: 0.108	inactive: -0.04	–	inactive: -0.021	inactive: 0.201	inactive: -0.043	–
PSMD11 (UniProt O00231)	inactive: -0.097	inactive: -0.023	inactive: 0.007	inactive: -0.035	inactive: -0.035	inactive: 0.058	inactive: 0.047	inactive: -0.033	inactive: -0.026	inactive: -0.048	inactive: 0	inactive: 0.086	inactive: 0.076	inactive: 0	inactive: -0.001	active: -0.263	inactive: 0.029	inactive: 0.037	inactive: -0.039	–

Exported as a markdown table: part of the list above.

| Target | log2 fold change (erlotinib) | log2 fold change [1] | log2 fold change [2] | log2 fold change [3] | log2 fold change [4] | log2 fold change [5] | log2 fold change [6] | log2 fold change [7] | log2 fold change [8] | log2 fold change (IRAK-1-4 Inhibitor I) | log2 fold change (ibrutinib) | log2 fold change [9] | log2 fold change (ralimetinib) | log2 fold change [10] | log2 fold change [11] | log2 fold change [12] | log2 fold change (pinometostat) | log2 fold change [13] | log2 fold change [14] | log2 fold change [15] |
| --- | --- | --- | --- | --- | --- | --- | --- | --- | --- | --- | --- | --- | --- | --- | --- | --- | --- | --- | --- | --- |
| PSMD2 (UniProt Q13200) | inactive: -0.095 | inactive: -0.095 | inactive: -0.001 | inactive: -0.043 | inactive: -0.024 | inactive: 0.007 | inactive: 0.016 | inactive: 0.005 | inactive: -0.021 | inactive: -0.08 | inactive: -0.035 | inactive: 0.039 | inactive: 0.018 | inactive: 0.021 | inactive: 0.039 | active: -0.296 | inactive: 0.019 | inactive: -0.036 | inactive: -0.042 | – |
| PYCR1 isoform 3 (UniProt P32322) | inactive: -0.022 | inactive: 0.039 | – | inactive: -0.057 | – | inactive: 0.023 | inactive: 0.02 | – | inactive: 0.063 | inactive: -0.021 | inactive: 0.035 | inactive: 0.033 | inactive: -0.008 | inactive: -0.053 | inactive: 0.038 | inactive: -0.007 | inactive: -0.099 | inactive: -0.005 | inactive: 0.045 | inactive: -0.027 |
